The supplement of paper PMC3334620
Over roughly 33,000 sequences, “E-score (-0.5 to 0.5)” has its median near -0.016; the highest 2% begin near 0.3. This is one part of the list.

These sequences were tested against T1, Yer184c (UniProt P39961) (assay: PBM E-score (8-mer binding enrichment) (E-score (-0.5 to 0.5)); higher = stronger / more preferred TF binding). Settings: protein concentration: 100 nM; construct: GST-full length.
T1 sequence: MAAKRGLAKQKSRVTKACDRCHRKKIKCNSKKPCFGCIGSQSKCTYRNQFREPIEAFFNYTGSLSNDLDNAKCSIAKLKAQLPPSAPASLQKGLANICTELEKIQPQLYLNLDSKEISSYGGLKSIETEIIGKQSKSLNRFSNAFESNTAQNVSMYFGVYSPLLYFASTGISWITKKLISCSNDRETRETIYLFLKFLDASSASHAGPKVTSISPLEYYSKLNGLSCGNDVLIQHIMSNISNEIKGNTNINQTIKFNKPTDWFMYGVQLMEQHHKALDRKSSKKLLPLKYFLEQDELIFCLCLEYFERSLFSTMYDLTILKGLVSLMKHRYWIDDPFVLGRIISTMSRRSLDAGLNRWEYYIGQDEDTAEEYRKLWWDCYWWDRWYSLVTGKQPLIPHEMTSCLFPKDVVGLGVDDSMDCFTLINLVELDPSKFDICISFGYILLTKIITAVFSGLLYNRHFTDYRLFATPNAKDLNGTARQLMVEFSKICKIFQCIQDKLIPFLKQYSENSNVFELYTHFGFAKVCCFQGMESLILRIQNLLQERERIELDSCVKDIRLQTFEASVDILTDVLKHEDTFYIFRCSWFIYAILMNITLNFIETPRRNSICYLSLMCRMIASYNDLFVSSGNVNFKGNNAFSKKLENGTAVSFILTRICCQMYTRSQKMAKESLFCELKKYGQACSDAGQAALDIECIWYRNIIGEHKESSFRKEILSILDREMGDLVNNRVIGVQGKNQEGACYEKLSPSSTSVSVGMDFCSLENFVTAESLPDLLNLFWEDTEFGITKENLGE
Summary of the method: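 Bound GST-tagged yeast transcription factors, applied at about 100-200 nM to double-stranded universal all-10-mer Agilent arrays, were detected with fluorescent anti-GST. Scans were normalised with masliner. A modified Wilcoxon-Mann-Whitney statistic, the E-score, was assigned to each ungapped eight-base word pooled with its reverse complement by the Universal PBM Analysis Suite.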

Sequence	PBM E-score
CTTGATCA	0.119
CAGACCGA	0.155
CGATTCAA	-0.0538
CACCGAAA	0.25
ACCAATTG	-0.0255
ATCTGCGG	0.165
CTCACAGC	-0.0338
AAATCCTA	0.0691
AGAACCGG	0.233
ATCCCCAG	-0.29
ACGCCTCC	-0.197
AGGGGGAG	-0.331
AGCCGTTG	0.13
ACTGAAGA	0.114
ATCTGAAT	0.0452
CCCGGCGC	0.216
CCGTTGCC	0.18
AGAGATTA	-0.0367
ACCCGACG	0.0621
CATAGGAG	-0.166
GCGCCTAA	0.0401
ACTAACCA	0.107
TAAGGCAA	-0.0253
ATACCTTA	0.0942
TCAGGCCA	-0.0244

Sequence	PBM E-score
AGTGTTAG	0.0348
AGTCATTG	-0.247
CCACGGCA	0.0784
GGCTGTCA	-0.0849
ACAGGGAG	-0.133
CCGAACTC	0.246
AGTGCAGG	-0.139
AGATACCA	0.109
AGCGGAAA	0.27
ACTCTCAT	-0.0795
CCATGTAA	-0.0912
ACAATTTA	0.102
AACGCACG	0.181
GAATCTGA	-0.0993
TCACACAA	-0.058
CTCCAGGC	-0.273
CTTGCGGC	0.121
AATCCCGG	0.284
GGCAGCAA	-0.0355
ATGCGACA	-0.0955
ACACCCTC	-0.27
GGCCGGCC	0.384
GCGAACGA	0.0149
CTTCTGCA	0.0161
CATGGTGG	-0.153

Sequence	PBM E-score
CGTATTCC	0.184
GCAGACCC	-0.103
AATCTTAC	0.206
AGTCCATA	-0.0327
CGGCAGCC	0.223
GATCCGAC	0.0808
ACTCGGCT	0.209
AAGTTTGA	0.0561
CACGAGCC	-0.0693
AGTCTTAC	-0.143
ACGTCCGA	0.0275
AGCTTGCA	-0.0112
AAGATGTC	-0.161
AATCGTGT	0.0587
AAGCACAT	0.1
CTTTCCAA	0.143
AACTCGGA	0.17
AGACGTCA	-0.202
CCGTATCC	0.204
CATGTGCC	-0.14
GTCCCGTA	0.0111
ATCCACGG	0.0634
CACACTAC	-0.0799
AATTTAAC	0.281
AGTTTGTG	-0.0244

At a glance, part of the list above:
Sequence	PBM E-score
GGCTGTCA	-0.0849
ACAGGGAG	-0.133
CCGAACTC	0.246
AGTGCAGG	-0.139
AGATACCA	0.109
AGCGGAAA	0.27
ACTCTCAT	-0.0795
CCATGTAA	-0.0912
ACAATTTA	0.102
AACGCACG	0.181
GAATCTGA	-0.0993
TCACACAA	-0.058
CTCCAGGC	-0.273
CTTGCGGC	0.121
AATCCCGG	0.284
GGCAGCAA	-0.0355
ATGCGACA	-0.0955
ACACCCTC	-0.27
GGCCGGCC	0.384
GCGAACGA	0.0149
CTTCTGCA	0.0161
CATGGTGG	-0.153
CGTATTCC	0.184
GCAGACCC	-0.103
AATCTTAC	0.206
AGTCCATA	-0.0327
CGGCAGCC	0.223
GATCCGAC	0.0808
ACTCGGCT	0.209
AAGTTTGA	0.0561
CACGAGCC	-0.0693
AGTCTTAC	-0.143
ACGTCCGA	0.0275
AGCTTGCA	-0.0112
AAGATGTC	-0.161
AATCGTGT	0.0587
AAGCACAT	0.1
CTTTCCAA	0.143
AACTCGGA	0.17
AGACGTCA	-0.202
CCGTATCC	0.204
CATGTGCC	-0.14
GTCCCGTA	0.0111

The list goes on:

Sequence	PBM E-score
CTCATGAA	-0.0125
ATAAACAA	0.251
CTCCTTCA	-0.0688
CAGGGGCA	-0.101
AGGGATAT	-0.146
GTCAAACA	-0.0565
CCCATGGC	-0.218
AATTTGCA	0.002
GCGTAACA	-0.0793
GTAAGGAA	-0.0396
CGAGCGAG	0.222
ACCCCGTG	-0.0536
CGTAATAC	0.168
CCGCTGGA	0.128
ATTATTCG	0.285
GTAGCATA	-0.0285
TTAAAAAA	0.262
AAACCTGT	-0.0534
ACTAGCAT	-0.028
ACATATTC	0.118
CAGACGGA	0.105
CGCATACC	0.0853
AAGGCATG	-0.049
AGGCGTAA	-0.0633
ACCTGCAT	0.0901

Sequence	PBM E-score
CTAATAAG	-0.0319
ATCCTCAT	-0.192
AGGCAGTC	-0.192
GGTCCGCA	0.151
CCTTCTCC	-0.0669
CCAACGTC	-0.211
CTCAATTA	0.00936
AACGAAGC	-0.133
CGACACGA	0.0191
AACTTGCG	0.0943
ATCAGACA	0.0525
CTAGTTAC	0.113
AAGGATTA	-0.0352
GTACATTA	0.0622
AGGTTGAC	-0.17
AAAGTTTC	0.0916
CAGGTGAG	-0.288
GGCAATGA	0.0156
GAGTCGCA	-0.295
CACGCTGG	-0.172
CAAGTACA	-0.0692
CTGACTTC	0.102
GGCCCCAC	-0.332
AGCAACCG	0.0619
CATCAGGG	-0.242

Sequence	PBM E-score
GGTGATTA	0.0797
AACGGGCT	-0.125
ACCCTCCA	-0.283
CCGATCCA	0.0278
AATCGGCC	0.146
GAGTACAA	0.114
ATAGTGAA	0.144
CCCGAGCA	-0.148
CGGACAAC	0.373
CCAAGTGC	-0.253
GACCCGGA	0.212
GACATGGC	-0.26
CATACCCG	-0.0295
GGAATCAA	0.157
ACACGCCC	-0.338
GACCGGCA	0.173
GTGATGAA	-0.162
ACCTACAC	-0.309
TCCCAAGA	0.0686
GTAATGCA	-0.157
CGAACGGA	0.283
CACATGAC	-0.224
AATAATGT	0.105
AAAAGCTG	-0.123
ACAAACAT	0.0706

Sequence	PBM E-score
GTAACGCA	0.0964
CCAGAGTC	-0.0661
ATTCAGTA	0.13
ACACGGGT	-0.0189
ATGTCTTA	-0.229
CCAGCTAA	-0.204
GGGTAACC	-0.248
AAATATTC	0.139
CGAGTAAA	0.202
CCCTTGGC	-0.255
GTCTGGGA	-0.178
AAATAGAA	0.0485
CGCGTTTC	-0.0961
GATATTAC	0.244
AGCGGTGC	-0.168
CATGCAGA	-0.0557
CTAGGCTA	-0.242
AGCGGCAC	-0.0845
AATCGTAT	0.039
AGGTGTAG	-0.344
GGCCGAGA	0.348
TGCTGGAA	0.14
